# In PubChem BioAssay AID504467 (National Center for Advancing Translational Sciences (NCATS), 2011):
# About 7,700 (2.3%) of roughly 330,000 compounds were called active. The inconclusive results got no clear call from the source; some entries with a clear call stand among them for comparison. Calls come from the whole dose curve; as a rule, active = well fitted inhibition curve with a large enough effect; inconclusive = small, poorly fitted or top-dose-only effect, or effect the other way; inactive = flat fitted curve, though single readings scatter. A potency beside an inconclusive call is a rough fit, not a confirmed value.
# Assay: qHTS screen for small molecules that inhibit ELG1-dependent DNA repair in human embryonic kidney (HEK293T) cells expressing luciferase-tagged ELG1; note: nearly all actives have a fitted effect of over 55% in size
# Details: HEK293T ELG1-luciferase reporter, luminescence, 16 h, DNA damage induced by 5-fluorouridine; activity change, negative = inhibition: at 46.1 µM (top of the series)
# How it was run: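 Cells (2,000 per well) received 5-fluorouridine plus test compound or DMSO and were incubated 16 hr at 37 °C, 5% CO2. Luciferase activity was read by luminescence 30 min after ONE-Glo addition; signal suppression marked inhibition of damage-induced ELG1 function.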
# % is set by controls: 0 for no effect and ±100 for the full control effect; potency is the fitted concentration of half-maximal effect.
SMILES,Potency,"activity change, negative = inhibition"
O=C(CSc1nc2ccccc2[nH]1)c1ccc2c(c1)OCO2,"inconclusive: 11.6 µM [activator, partial curve]",–
Cc1nn(Cc2ccccc2)c(C)c1NC(=O)c1cc(-c2ccc3c(c2)OCO3)on1,"inconclusive: 11.6 µM [inhibitor, partial curve]",–
COc1ccc(N2CC(C(=O)Nc3nnc(SCC(=O)NC4CCCC4)s3)CC2=O)cc1 (configuration not stated),–,inactive: -0.425%
O=c1[nH]cnc2onc(-c3ccc(F)cc3)c12,–,inactive: -7.05%
CCN(C(=O)COC(=O)CC1CCCCC1)c1c(N)n(Cc2ccccc2)c(=O)[nH]c1=O,–,inactive: 16.3%
Cc1ccc(NC(=O)Cn2cc(C(F)(F)F)cc(Cl)c2=O)cc1S(=O)(=O)N1CCCCC1,"inconclusive: 5.17 µM [inhibitor, partial curve, poor fit]",–
COc1ccc(Cc2nnc(NC(=O)c3c(-c4ccccc4)noc3C)s2)cc1,–,inactive: -11.7%
O=C(CSc1ncnc2ccccc12)c1ccco1,–,inconclusive: 52.2% [activator]
COc1ccc(N(CC(=O)Nc2cccc(SC)c2)S(C)(=O)=O)cc1,"inconclusive: 11.2 µM [activator, single point]",–
O=C(CSc1nnc2scc(-c3ccccc3)n12)c1ccc2c(c1)OCCO2,"inconclusive: 23.1 µM [inhibitor, single point]",–
COc1ccc(OC)c(/C=C/C(=O)N2CCN(S(=O)(=O)c3ccc(C)cc3C)CC2)c1,"inconclusive: 9.2 µM [inhibitor, partial curve, poor fit]",–
COc1cccc(NC(=O)c2cnn(-c3ccccc3)c2C)c1,–,inconclusive: 144% [activator]
COc1cc(CNc2ncn[nH]2)ccc1OCc1ccccc1C,"inconclusive: 16.4 µM [activator, single point]",–
COc1ccc(-c2cnnc(N/N=C/c3c(C)nn(-c4ccccc4)c3Cl)n2)cc1,"inconclusive: 4.11 µM [inhibitor, partial curve, poor fit]",–
COc1ccc(CN2CCC(n3nccc3NC(=O)C3CCCC3)CC2)c(OC)c1,"inconclusive: 29.1 µM [inhibitor, single point]",–
O=C(COC(=O)c1ccccc1NCCO)Nc1cccc(S(=O)(=O)NC2=NCCCCC2)c1,–,inactive: 3.06%
CSc1n[nH]c2nc3c(c(=O)n12)C1(CCCC1)Cc1ccccc1-3,–,inactive: 14.2%
Brc1ccc2nc(-c3ccncc3)c(NC3CCCC3)n2c1,"inconclusive: 29.1 µM [inhibitor, single point]",–
CCOC(=O)C1=C(Cc2ccc(Cl)cc2)C(=O)c2ccccc2C1=O,–,inactive: 18.3%
O=C(Oc1ccc2ccccc2c1)c1ccccc1,"inconclusive: 23.1 µM [activator, single point]",–
COc1cc(/C=N/Nc2nc3ccccc3[nH]c2=O)ccc1O,–,inactive: 6.48%
COc1ccc([N+](=O)[O-])cc1NC(=O)C1C2C=CC(C2)C1C(=O)O (configuration not stated),"inconclusive: 4.11 µM [inhibitor, partial curve, poor fit]",–
Fc1c(F)c(F)c(SCn2cc(Br)cn2)c(F)c1F,–,inactive: -0.446%

SMILES,Potency,"activity change, negative = inhibition"
O=C(Nc1ccc(-c2nc3ncccc3o2)cc1)c1ccc([N+](=O)[O-])o1,–,inactive: 9.21%
CCCC(O)(c1ccccc1)C(CN1CCOCC1)c1ccccc1 (configuration not stated),"inconclusive: 6.51 µM [inhibitor, single point]",–
Cc1cc(C)n(CC(=O)NNC(=O)CC(C)c2ccccc2)n1 (configuration not stated),"inconclusive: 0.0651 µM [inhibitor, full curve, poor fit]",–
CCN(CC)c1ccc(/C=N\NC(N)=O)cc1,"inconclusive: 18.4 µM [activator, single point]",–
COc1ccc(C(=O)c2sc3nc(C)cc(-c4cccs4)c3c2N)cc1,"inconclusive: 9.2 µM [inhibitor, partial curve, poor fit]",–
COCCn1c(C)cc(C(=O)CSc2nc3ccccc3s2)c1C,"inconclusive: 0.731 µM [activator, full curve]",–
Cc1cc(C)c(OCC(=O)Nc2cccc(O)c2)cc1C,"inconclusive: 5.17 µM [activator, partial curve]",–
Cc1cccc(C)c1NC(=O)CNC(=O)c1ccccc1OCc1ccccc1,"inconclusive: 23.1 µM [inhibitor, partial curve, poor fit]",–
CN1Cc2c(N3CCOCC3)nc3sc(C(=O)c4ccc(Br)cc4)c(N)c3c2CC1(C)C,"inconclusive: 23.1 µM [inhibitor, partial curve, poor fit]",–
Cc1ccc(C(=O)NC2CCCCC2)cc1S(=O)(=O)N1CCCC1,"inconclusive: 6.51 µM [activator, partial curve]",–
O=C(N/C=N/O)C(c1ccccc1)c1ncc(C(F)(F)F)cc1Cl (configuration not stated),–,inactive: 10.3%
CN1/C(=C\C(=O)C[n+]2cccc(Br)c2)C(C)(C)c2ccccc21,"inconclusive: 1.16 µM [inhibitor, partial curve]",–
COC(=O)c1ccc(N=Nc2ccccc2)cc1,"inconclusive: 18.3 µM [activator, partial curve]",–
O=C(Nc1cccc(S(=O)(=O)N2CCOCC2)c1)C1CCN(S(=O)(=O)c2ccccc2)CC1,–,inactive: -23.2%
CCCCn1c(N)c(N(CCC(C)C)C(=O)C2=NN(c3ccccc3)C(=O)CC2)c(=O)[nH]c1=O,"inconclusive: 29.1 µM [activator, single point]",–
CCCCc1c(C)nn(-c2nnc3c4ccccc4n(C)c3n2)c1C,"inconclusive: 9.2 µM [activator, partial curve]",–
CCCOc1ccc(/C=C/C(=O)Nc2ccc([N+](=O)[O-])cc2)cc1,"inconclusive: 2.31 µM [inhibitor, full curve]",–
O=C(CN1CCN(S(=O)(=O)N2CCCCC2)CC1)Nc1ccc(Br)cc1,–,inactive: -5.28%
Cc1cc(C(=O)CSc2nnnn2-c2ccccc2)c(C)n1CC1CCCO1 (configuration not stated),"inconclusive: 2.51 µM [activator, full curve]",–
CCCS(=O)(=O)N1CCCC(C(=O)NCC(OC)OC)C1 (configuration not stated),"inconclusive: 9.2 µM [activator, partial curve, poor fit]",–
COCCC(=O)N1CCCC(CCC(=O)NCc2ccc(F)c(F)c2)C1 (configuration not stated),"inconclusive: 16.4 µM [activator, single point]",–
COc1cc(NC(=O)CCCSc2nc(-c3ccco3)cc(C(F)(F)F)n2)cc(OC)c1OC,"inconclusive: 23.1 µM [inhibitor, single point]",–
Clc1cccc(Cl)c1C[n+]1ccc2ccccc2c1,"inconclusive: 6.51 µM [inhibitor, single point]",–

SMILES,Potency,"activity change, negative = inhibition"
CCOc1ccc(CN2CCN(CC3=Cc4cccc(OC)c4OC3)CC2CCO)cc1 (configuration not stated),"inconclusive: 20.6 µM [inhibitor, partial curve, poor fit]",–
CSc1ccc(Cl)c(C(=O)Nc2cc(S(=O)(=O)N3CCOCC3)ccc2N2CCOCC2)c1,active: 18.3 µM,–
COC(=O)c1sccc1N/N=C/c1cccc(Oc2ccccc2)c1,"inconclusive: 2.59 µM [activator, full curve]",–
C[C@@]12C(=O)N(CC3CCCO3)CC(=O)N1[C@H]1c3cc(Cl)ccc3OC[C@@H]1[C@@H]2c1ccccc1 (some centres not stated),"inconclusive: 18.3 µM [inhibitor, partial curve]",–
COCC1CCN(C(=O)C2CCC(=O)N(C3CCCC3)C2)CC1 (configuration not stated),"inconclusive: 23.1 µM [activator, single point]",–
Cc1ccc(C23CC4CC(CC(C(N)=O)(C4)C2)C3)cc1,–,inactive: 15.5%
CCN=C1SC(CC(=O)Nc2ccc(C)cc2)C(=O)N1CC (configuration not stated),"inconclusive: 23.1 µM [inhibitor, partial curve, poor fit]",–
CC(C)(C)C(=O)Cn1ncc(Br)c(Br)c1=O,"inconclusive: 29.1 µM [inhibitor, single point]",–
Cc1ccc(OCc2nnc(N)s2)cc1,"inconclusive: 29.1 µM [activator, single point]",–
Cc1cccc(C)c1OCC(O)CN1CCN(c2ccccc2)CC1 (configuration not stated),–,inactive: -2.02%
COC(=O)[C@@H](NC(=O)O[C@H]1C(=O)c2ccc(OC)cc2O[C@@H]1c1ccc2c(c1)OCO2)C(C)C,"inconclusive: 25.9 µM [inhibitor, partial curve, poor fit]",–
O=C(NNc1ccccc1[N+](=O)[O-])Nc1ccc(Cl)c(Cl)c1,–,inactive: -28.2%
CC(C)COc1ncnc2c1sc1nc3c(cc12)COC(C)(C)C3,"inconclusive: 14.6 µM [activator, partial curve]",–
CC(OC(=O)/C=C/c1ccccc1Cl)C(=O)NC1CCCCC1C (configuration not stated),–,inactive: 6.56%
Cc1ccccc1C(=O)Nc1nnc(-c2ccco2)o1,"inconclusive: 10.3 µM [activator, partial curve]",–
O=C(c1cc2c(s1)CCC2)N1CCN(c2ccccc2)CC1,"inconclusive: 23.1 µM [activator, partial curve, poor fit]",–
O=c1oc(-c2ccc(O)c(O)c2)cc2cc(O)cc(O)c12,"inconclusive: 14.6 µM [activator, partial curve]",–
O=C(Cc1cccs1)N/N=C/c1ccccn1,"inconclusive: 11.6 µM [activator, partial curve]",–
CCN(c1ccccc1)S(=O)(=O)c1cc(C(=O)Nc2ccc(Br)cc2)ccc1F,"inconclusive: 18.4 µM [inhibitor, single point]",–
Cc1ccc(C2(C)NC(=O)N(CC(=O)N(Cc3ccccc3)C(C)(C)C)C2=O)cc1 (configuration not stated),"inconclusive: 0.231 µM [activator, full curve, poor fit]",–
N/C(=N\OC(=O)c1cccc(F)c1)c1ccccn1,"inconclusive: 1.64 µM [activator, full curve]",–

# Four of these compounds, set out differently.
SMILES	Potency	activity change, negative = inhibition
Cc1nn(Cc2ccccc2)c(C)c1NC(=O)c1cc(-c2ccc3c(c2)OCO3)on1	inconclusive: 11.6 µM [inhibitor, partial curve]	–
COc1ccc(-c2cnnc(N/N=C/c3c(C)nn(-c4ccccc4)c3Cl)n2)cc1	inconclusive: 4.11 µM [inhibitor, partial curve, poor fit]	–
COCCn1c(C)cc(C(=O)CSc2nc3ccccc3s2)c1C	inconclusive: 0.731 µM [activator, full curve]	–
COCCC(=O)N1CCCC(CCC(=O)NCc2ccc(F)c(F)c2)C1 (configuration not stated)	inconclusive: 16.4 µM [activator, single point]	–
